# Experimental data as given in the supplement of paper PMC4604168 (melanoma cell lines).
# Some of the results follow. Repeats are few or missing, and single values can be far off.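 The apoptosis fraction was the count of cleaved-PARP antibody-stained nuclei relative to all DNA-stained nuclei, imaged in 1,536-well plates. Screening doses were set so most cells survived, and baseline and induced cleaved-PARP levels vary greatly across cell lines.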
# System: CBRC016 (line from a melanoma biopsy)
# Experiment: cleaved PARP positive nuclei fraction relative to DMSO control; melanoma cells; higher = more apoptosis
# Conditions: library dose: low library concentration; 72 h
row,SMILES,cleaved PARP positive nuclei fraction [%]
1,"OCCn1cc(-c2cnc3nnn(Cc4ccc5ncccc5c4)c3n2)cn1 + Oc1cc(-c2nc(-c3ccccc3)[nH]c2-c2ccncc2)ccc1Cl [L779450] (first compound 1 µM, partner dose 0.2 µM)",71.2
2,"CO[C@@H]1[C@H](N(C)C(=O)c2ccccc2)C[C@H]2O[C@]1(C)n1c3ccccc3c3c4c(c5c6ccccc6n2c5c31)C(=O)NC4 [Midostaurin] + O=C(Nc1ccccc1)c1cc([N+](=O)[O-])ccc1Cl [GW9662] (first compound 0.08 µM, partner dose 2 µM)",130
3,"CC1(C)NC(=O)N(c2ccc([N+](=O)[O-])c(C(F)(F)F)c2)C1=O [nilutamide] + COC(=O)c1sccc1S(=O)(=O)Nc1ccc(Nc2ccccc2)cc1OC [GSK0660] (first compound 1 µM, partner dose 1 µM)",35.9
4,"Cc1nc(Nc2ncc(C(=O)Nc3c(C)cccc3Cl)s2)cc(N2CCN(CCO)CC2)n1 [dasatanib] + Cc1cc([N+](=O)[O-])ccc1NS(=O)(=O)c1cc(Cl)ccc1Cl [FH535] (first compound 0.004 µM, partner dose 1 µM)",1100
5,"C[C@@H]1CCN(C(=O)CC#N)C[C@@H]1N(C)c1ncnc2[nH]ccc12 + O=C(Nc1ccccc1)c1cc([N+](=O)[O-])ccc1Cl [GW9662] (first compound 1 µM, partner dose 2 µM)",30
6,"C=CCn1c(=O)c2cnc(Nc3ccc(N4CCN(C)CC4)cc3)nc2n1-c1cccc(C(C)(C)O)n1 + O=c1cc(-c2cccc3c2Sc2ccccc2S3)oc(N2CCOCC2)c1 [KU55933] (first compound 0.02 µM, partner dose 1 µM)",22.7
7,"Cc1ccc(NC(=O)c2cccc(N(C)C)c2)cc1NC(=O)c1ccc(O)cc1 + N#Cc1c(O)c2c(-c3ccc(-c4ccccc4O)cc3)csc2[nH]c1=O [A769662] (first compound 2 µM, partner dose 2 µM)",57.2
8,"Cc1cc(N2CCOCC2)cc2[nH]c(-c3c(NC[C@@H](O)c4cccc(Cl)c4)cc[nH]c3=O)nc12 + O=C(O)C(=O)Nc1sc2c(c1C(=O)O)CCNC2 [TCS401] (first compound 0.2 µM, partner dose 1.66667 µM)",60.2
9,"C=CCn1c(=O)c2cnc(Nc3ccc(N4CCN(C)CC4)cc3)nc2n1-c1cccc(C(C)(C)O)n1 + CCN(CC)CCCCNc1ncc2cc(-c3cc(OC)cc(OC)c3)c(NC(=O)NC(C)(C)C)nc2n1 [PD173074] (first compound 0.02 µM, partner dose 0.1 µM)",214
10,"Cc1cc(N2CCOCC2)cc2[nH]c(-c3c(NC[C@@H](O)c4cccc(Cl)c4)cc[nH]c3=O)nc12 + O=c1cc(-c2cccc3c2Sc2ccccc2S3)oc(N2CCOCC2)c1 [KU55933] (first compound 0.2 µM, partner dose 1 µM)",68.7
11,"C#Cc1cccc(Nc2ncnc3cc(OCCOC)c(OCCOC)cc23)c1 [erlotinib] + O=c1cc(-c2cccc3c2Sc2ccccc2S3)oc(N2CCOCC2)c1 [KU55933] (first compound 0.8 µM, partner dose 1 µM)",49
12,"Cn1c(Nc2ccc(C(F)(F)F)cc2)nc2cc(Oc3ccnc(-c4ncc(C(F)(F)F)[nH]4)c3)ccc21 + O=C1NC(=O)/C(=C/c2ccc(-c3ccc(F)cc3O)o2)S1 [AS252424] (first compound 0.08 µM, partner dose 1 µM)",124
13,"NC(=O)Nc1cc(-c2cccc(F)c2)sc1C(=O)N[C@H]1CCCNC1 + CCCCCCCCCCCC1=C(O)C(=O)C=C(O)C1=O [Embelin] (first compound 0.02 µM, partner dose 1.2 µM)",122
14,"C=CCn1c(=O)c2cnc(Nc3ccc(N4CCN(C)CC4)cc3)nc2n1-c1cccc(C(C)(C)O)n1 + COc1cc2ncnc(Nc3ccc(Oc4ccccc4)cc3)c2cc1OC [SrcI1] (first compound 0.02 µM, partner dose 2 µM)",169
15,"Cn1c(Nc2ccc(C(F)(F)F)cc2)nc2cc(Oc3ccnc(-c4ncc(C(F)(F)F)[nH]4)c3)ccc21 + N#Cc1c(O)c2c(-c3ccc(-c4ccccc4O)cc3)csc2[nH]c1=O [A769662] (first compound 0.08 µM, partner dose 2 µM)",141
16,"Cn1nnc2c(C(N)=O)ncn2c1=O [temozolomide] + COc1cc(N2CCC(N3CCN(C)CC3)CC2)ccc1Nc1ncc(Cl)c(Nc2ccccc2S(=O)(=O)C(C)C)n1 [NVP-TAE684] (first compound 2 µM, partner dose 0.08 µM)",60.9
17,"O=C(CCCCCCC(=O)Nc1ccccc1)NO [vorinostat] + COc1ccc(COc2ccc(Cc3cnc(N)nc3N)cc2OC)cc1 [GW2580] (first compound 0.08 µM, partner dose 1 µM)",74.2

row,SMILES,cleaved PARP positive nuclei fraction [%]
1,"C#Cc1cccc(Nc2ncnc3cc(OCCOC)c(OCCOC)cc23)c1 [erlotinib] + Oc1cc(-c2nc(-c3ccccc3)[nH]c2-c2ccncc2)ccc1Cl [L779450] (first compound 0.8 µM, partner dose 0.2 µM)",95.5
2,"C#Cc1cccc(Nc2ncnc3cc(OCCOC)c(OCCOC)cc23)c1 [erlotinib] + N#Cc1c(O)c2c(-c3ccc(-c4ccccc4O)cc3)csc2[nH]c1=O [A769662] (first compound 0.8 µM, partner dose 2 µM)",40.9
3,"COCC[n+]1c2c(n(Cc3cnccn3)c1C)C(=O)c1ccccc1C2=O + COc1ccc(-c2ccc3c(N4CCOCC4)nc(N4C[C@@H](C)O[C@@H](C)C4)nc3n2)cc1CO [KU0063794] (first compound 0.0004 µM, partner dose 0.02 µM)",42.3
4,"COc1cc(Nc2ncc(F)c(Nc3ccc4c(n3)NC(=O)C(C)(C)O4)n2)cc(OC)c1OC [Tamatinib] + O=C1NC(=O)/C(=C/c2ccc(-c3ccc(F)cc3O)o2)S1 [AS252424] (first compound 0.4 µM, partner dose 1 µM)",87.7
5,"OCCn1cc(-c2cnc3nnn(Cc4ccc5ncccc5c4)c3n2)cn1 + Cc1cc([N+](=O)[O-])ccc1NS(=O)(=O)c1cc(Cl)ccc1Cl [FH535] (first compound 1 µM, partner dose 1 µM)",1610
6,"Nc1cccc2c1CN(C1CCC(=O)NC1=O)C2=O (stereo not drawn) [lenalidomide] + CCN(CC)CCCCNc1ncc2cc(-c3cc(OC)cc(OC)c3)c(NC(=O)NC(C)(C)C)nc2n1 [PD173074] (first compound 1 µM, partner dose 0.1 µM)",38.8
7,"C[C@@H]1CCN(C(=O)CC#N)C[C@@H]1N(C)c1ncnc2[nH]ccc12 + O=C(O)C(=O)Nc1sc2c(c1C(=O)O)CCNC2 [TCS401] (first compound 1 µM, partner dose 1.66667 µM)",19.4
8,"OCCn1cc(-c2cnc3nnn(Cc4ccc5ncccc5c4)c3n2)cn1 + COc1ccc2c(c1)CCC1C2CCC2(C)C(NCCCCCCN3C(=O)C=CC3=O)CCC12 [U73122] (first compound 1 µM, partner dose 0.4 µM)",42.5
9,"Cc1cc(N2CCOCC2)cc2[nH]c(-c3c(NC[C@@H](O)c4cccc(Cl)c4)cc[nH]c3=O)nc12 + O=C(Nc1ccccc1)c1cc([N+](=O)[O-])ccc1Cl [GW9662] (first compound 0.2 µM, partner dose 2 µM)",113
10,"Nc1cccc2c1CN(C1CCC(=O)NC1=O)C2=O (stereo not drawn) [lenalidomide] + O=C(Nc1ccccc1)c1cc([N+](=O)[O-])ccc1Cl [GW9662] (first compound 1 µM, partner dose 2 µM)",62.5
11,"CC(C)(C)c1cnc(CSc2cnc(NC(=O)C3CCNCC3)s2)o1 + Oc1cc(-c2nc(-c3ccccc3)[nH]c2-c2ccncc2)ccc1Cl [L779450] (first compound 0.01 µM, partner dose 0.2 µM)",109
12,"Cc1nc(Nc2ncc(C(=O)Nc3c(C)cccc3Cl)s2)cc(N2CCN(CCO)CC2)n1 [dasatanib] + COC(=O)c1sccc1S(=O)(=O)Nc1ccc(Nc2ccccc2)cc1OC [GSK0660] (first compound 0.004 µM, partner dose 1 µM)",49.7
13,"C#Cc1cccc(Nc2ncnc3cc(OCCOC)c(OCCOC)cc23)c1 [erlotinib] + O=C(O)C(=O)Nc1sc2c(c1C(=O)O)CCNC2 [TCS401] (first compound 0.8 µM, partner dose 1.66667 µM)",94.2
14,"Cn1c(Nc2ccc(C(F)(F)F)cc2)nc2cc(Oc3ccnc(-c4ncc(C(F)(F)F)[nH]4)c3)ccc21 + CCCCCCCCCCCC1=C(O)C(=O)C=C(O)C1=O [Embelin] (first compound 0.08 µM, partner dose 1.2 µM)",42
15,"Cn1cncc1[C@@](N)(c1ccc(Cl)cc1)c1ccc2c(c1)c(-c1cccc(Cl)c1)cc(=O)n2C [tipifarnib] + COc1cc2ncnc(Nc3ccc(Oc4ccccc4)cc3)c2cc1OC [SrcI1] (first compound 0.01 µM, partner dose 2 µM)",57.5
16,"C#Cc1cccc(Nc2ncnc3cc(OCCOC)c(OCCOC)cc23)c1 [erlotinib] + COc1cc2ncnc(Nc3ccc(Oc4ccccc4)cc3)c2cc1OC [SrcI1] (first compound 0.8 µM, partner dose 2 µM)",39.3

# Part of the list above, with tabs.
row	SMILES	cleaved PARP positive nuclei fraction [%]
11	CC(C)(C)c1cnc(CSc2cnc(NC(=O)C3CCNCC3)s2)o1 + Oc1cc(-c2nc(-c3ccccc3)[nH]c2-c2ccncc2)ccc1Cl [L779450] (first compound 0.01 µM, partner dose 0.2 µM)	109
12	Cc1nc(Nc2ncc(C(=O)Nc3c(C)cccc3Cl)s2)cc(N2CCN(CCO)CC2)n1 [dasatanib] + COC(=O)c1sccc1S(=O)(=O)Nc1ccc(Nc2ccccc2)cc1OC [GSK0660] (first compound 0.004 µM, partner dose 1 µM)	49.7
13	C#Cc1cccc(Nc2ncnc3cc(OCCOC)c(OCCOC)cc23)c1 [erlotinib] + O=C(O)C(=O)Nc1sc2c(c1C(=O)O)CCNC2 [TCS401] (first compound 0.8 µM, partner dose 1.66667 µM)	94.2
